# Experimental data from PubChem BioAssay AID2517 (National Center for Advancing Translational Sciences (NCATS), 2010).
# Amino acid sequences for entries named in this document (tags omitted).
# UniProt P27695, whole entry, looked up: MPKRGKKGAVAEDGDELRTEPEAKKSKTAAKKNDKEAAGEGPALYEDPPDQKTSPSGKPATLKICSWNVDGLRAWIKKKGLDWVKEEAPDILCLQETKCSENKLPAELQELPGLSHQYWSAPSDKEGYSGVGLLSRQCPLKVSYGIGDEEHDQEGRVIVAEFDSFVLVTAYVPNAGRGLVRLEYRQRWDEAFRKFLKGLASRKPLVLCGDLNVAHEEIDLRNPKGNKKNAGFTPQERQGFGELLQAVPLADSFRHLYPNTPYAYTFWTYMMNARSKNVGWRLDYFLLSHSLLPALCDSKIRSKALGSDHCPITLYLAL
# Out of some 350,000 compounds screened, about 1,200 (0.34%) were called active. This list was built around the results that the source calls inconclusive (neither active nor inactive); the mix of calls is not that of the screen. The call rests on the fitted dose curve; in most records, active means well fitted inhibition curve with a large enough effect; inconclusive means small, poorly fitted or top-dose-only effect; inactive means no such curve, though single readings can be large or run the other way. Where the call is inconclusive, the potency comes from a doubtful curve fit.
# Target: DNA repair nuclease/redox regulator APEX1 (Homo sapiens) (UniProt P27695)
# Assay: qHTS Assay for Inhibitors of the Human Apurinic/apyrimidinic Endonuclease 1 (APE1); further: nearly all actives have a fitted effect of over 55% in size;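 on activity change, negative = inhibition: plate controls were vehicle for no effect and reference inhibitor for full effect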
# Details: recombinant APE1, TAMRA/BHQ-2 abasic DNA cleavage fluorescence; activity change, negative = inhibition: at 65.8 µM (top of the series)
# Summary of the method: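 Endonuclease cleavage of a quenched abasic-site DNA duplex (50 nM) by APE1 (0.75 nM) was tracked by TAMRA dequenching. Compounds were preincubated with enzyme 15 min at room temperature; data normalized to buffer-only and DMSO wells plus NSC13755 control.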
# Potency means the concentration at half of the fitted maximal effect.
Compound,Potency,"activity change, negative = inhibition"
O=C1CN(C(=O)c2cc3ccccc3oc2=O)C(c2ccccc2)c2cc(F)ccc2N1 (centres undefined),"inconclusive: 3.55 µM [inhibitor, partial curve, poor fit]",–
CN(C)c1ccc(CN(C(=O)COc2ccc(F)cc2)C2CCS(=O)(=O)C2)cc1 (centres undefined),"inconclusive: 10 µM [inhibitor, single point]",–
Cn1nc(-c2ccc(Cl)cc2)c2cc(C(=O)NCC3CCCO3)sc21 (centres undefined),"inconclusive: 44.7 µM [inhibitor, single point]",–
Cc1cc(C)c(C(=O)O)c(CC(C)(C)C(=O)O)c1,"inconclusive: 8.91 µM [inhibitor, partial curve, poor fit]",–
Cc1noc(NS(=O)(=O)c2ccc(NC(=O)c3ccc(N4C(=O)c5ccccc5C4=O)cc3)cc2)c1C,"inconclusive: 31.6 µM [inhibitor, partial curve]",–
CC1CCCCN1CCNC(=O)c1ccc2c(=O)n(CCc3ccccc3)c(=O)[nH]c2c1 (centres undefined),"inconclusive: 22.4 µM [inhibitor, single point]",–
COC(=O)c1ccccc1NC1=C/C(=N\S(=O)(=O)c2ccc(C(=O)O)cc2)c2ccccc2C1=O,"inconclusive: 23.8 µM [inhibitor, single point]",–
COc1ccc(-c2cc(-c3ccccc3)nc(SC(C)C(=O)O)c2C#N)cc1 (centres undefined),–,inactive: 13.9%
O=C(N/N=C/c1cc(Br)c(O)c(Br)c1)c1cc2c(ccc3ccccc32)o1,"inconclusive: 26.7 µM [inhibitor, single point]",–
c1cncc(-c2nc(-n3ccnc3)c3ccccc3n2)c1,"inconclusive: 39.8 µM [inhibitor, single point]",–
CCC(=O)Oc1c(C(=O)CC)cc2c(C)cc(=O)oc2c1C,–,inactive: -2.55%
COc1ccccc1OCC(=O)N/N=C1/C=C(C)CC1,"inconclusive: 31.6 µM [inhibitor, single point]",–
O=C(/C=C/c1ccco1)N1CCC(Cc2ccccc2)CC1,–,inactive: 3.2%
O=C(Cn1cnc2ccccc2c1=O)NCc1cccs1,–,inactive: 0.149%
CCOC(=O)c1c(C)[nH]c(C)c1C(=O)COC(=O)c1cc2ccccc2cc1O,"inconclusive: 22.4 µM [inhibitor, single point]",–
CCC(O)OC(O)CC (centres undefined),"inconclusive: 31.6 µM [inhibitor, partial curve, poor fit]",–
O=c1nc2n(c3ncccc13)CCC2,"inconclusive: 6.31 µM [inhibitor, single point]",–
Cc1ccc(-n2c(C)nnc2SCC(=O)NC2CCCC2)cc1,–,inactive: 18.5%
Cc1ccc(-n2c(SCC(=O)N3CC(=O)Nc4ccccc43)nc3ccccc3c2=O)cc1,"inconclusive: 39.8 µM [inhibitor, single point]",–
O=C1NC(=S)N/C1=C/c1cccn1-c1ccc([N+](=O)[O-])cc1,"inconclusive: 20 µM [inhibitor, partial curve]",–
CN(C)CCCOc1nc2c(c(=O)n(C)c(=O)n2C)n1C,"inconclusive: 44.7 µM [inhibitor, single point]",–
C=CC1=C(C)C2=CC3=NC(=C(CC(=O)[O-])C4=NC(=C(C)C4=C([O-])[O-])C=c4[n-]c(c(C)c4CC)=CC1=N2)C(CCC(=O)[O-])C3C.[Cu+2].[Na+].[Na+].[Na+] (centres undefined),active: 0.398 µM,–

Compound,Potency,"activity change, negative = inhibition"
O=C1C2CC=C(Cl)CC2C(=O)N1CN(Cc1ccco1)CN1C(=O)C2CC=C(Cl)CC2C1=O (centres undefined),"inconclusive: 44.7 µM [inhibitor, single point]",–
O=C(Cn1[nH]c(=O)c2ccccc2c1=O)OCC(=O)c1ccc(F)c(F)c1,"inconclusive: 0.947 µM [inhibitor, single point]",–
Brc1ccc(Oc2ncc(CN3CCN(c4ccccc4)CC3)s2)cc1,"inconclusive: 1.41 µM [inhibitor, full curve]",–
CCc1cccc2c(C(=O)COC(=O)/C=C/c3ccc(O)c(OC)c3)c[nH]c12,"inconclusive: 35.5 µM [inhibitor, single point]",–
c1cn(-c2ncnc3sc4c(c23)CCCC4)cn1,"inconclusive: 0.158 µM [inhibitor, full curve, poor fit]",–
COc1cc(C2c3c(oc4ccccc4c3=O)C(=O)N2c2nccs2)ccc1O (centres undefined),–,inactive: -1.64%
Nc1nc(N2CCOCC2)n[nH]1,"inconclusive: 44.7 µM [inhibitor, single point]",–
CC/C=C\[C@H](O)[C@H](O)C1=C(C)C(=O)[C@]2(O1)C(=O)N[C@@](OC)(C(=O)c1ccccc1)C2O (some centres undefined),"inconclusive: 31.6 µM [inhibitor, partial curve]",–
COc1ccc(NC(=O)c2cnc(SC)n2-c2ccc(F)cc2)c(OC)c1,–,inactive: -12.7%
N#CC(C#N)=c1ccc2c(c1)NC1(CCCCC1)N=2,"inconclusive: 28.2 µM [inhibitor, partial curve, poor fit]",–
O=C(C1CC1)N1CCc2cc(S(=O)(=O)N3CCCc4ccccc43)ccc21,–,inactive: 2.07%
Cc1c(C(N)=O)sc2nc(-c3ccccc3)cn12,"inconclusive: 3.55 µM [inhibitor, single point]",–
COc1ccccc1C(=O)NC(CCSC)C(=O)OCC(=O)NC(=O)NCc1ccco1 (centres undefined),"inconclusive: 20 µM [inhibitor, single point]",–
NS(=O)(=O)c1ccc(Nc2ccccc2)c([N+](=O)[O-])c1,"inconclusive: 39.8 µM [inhibitor, single point]",–
COc1cccc(Nc2ncnc3c2cnn3-c2cccc(C)c2)c1,"inconclusive: 35.5 µM [inhibitor, single point]",–
CSc1ccc(S(=O)(=O)NCCOc2ccccc2C)cc1,–,inactive: -4.68%
Cc1cc(-c2ccc(N=Nc3c(S(=O)(=O)O)cc4cc(S(=O)(=O)O)cc(N)c4c3O)c(C)c2)ccc1N=Nc1c(S(=O)(=O)O)cc2cc(S(=O)(=O)O)cc(N)c2c1O,active: 0.474 µM,–
O=C(CSc1ncnc2sc3c(c12)CCCC3)c1ccco1,"inconclusive: 31.6 µM [inhibitor, single point]",–
CCOC(=O)c1c(C)[nH]c(C)c1C(=O)COc1ccc(NC(=O)c2ccco2)cc1,"inconclusive: 10 µM [inhibitor, partial curve, poor fit]",–
COc1cc(OC)c(OC)cc1CNCCNC(=O)c1nonc1N,"inconclusive: 0.02 µM [inhibitor, full curve, poor fit]",–
O=C(CSc1n[nH]c(=O)n1C1CC1)c1ccc2c(c1)OCCO2,"inconclusive: 0.355 µM [inhibitor, full curve, poor fit]",–
CC(C)(C)c1ccc(OC2C(O)COC2/C=C/C#Cc2ccccc2)cc1 (centres undefined),"inconclusive: 3.16 µM [inhibitor, single point]",–

Compound,Potency,"activity change, negative = inhibition"
CCC(=O)Nc1nonc1-c1nc2ccccc2n1N(C(=O)CC)C(=O)CC,"inconclusive: 39.8 µM [inhibitor, partial curve, poor fit]",–
CC1(C)OC(=O)C(=Cc2ccc(-c3ccc(S(N)(=O)=O)cc3)o2)C(=O)O1,–,inactive: -8.02%
Cc1ccc(/C=C2\C(=N)N3N=C(CC(=O)N4CCCCC4)SC3=NC2=O)cc1,–,inactive: 41.1%
O=C(/C=C/c1cccs1)NC(=S)Nc1ccccc1,"inconclusive: 8.91 µM [inhibitor, partial curve, poor fit]",–
C=CCN1c2ccccc2[C@]23C[C@@H](C(=O)OC)N(S(=O)(=O)c4c(C)noc4C)C2=NC(C(=O)OC)=C(C(=O)OC)[C@H]13,–,inactive: -0.365% [at 12.4 µM]
COC(=O)c1ccc(C(NC(=O)OCc2ccccc2)/C(F)=C/[C@@H](C)C(=O)Nc2ccc(OC)cc2)cc1 (some centres undefined),–,inactive: -0.149%
COc1cc(/C=C/[N+](=O)[O-])ccc1OCc1cccc(C(=O)O)c1,active: 6.31 µM,–
Cc1nc2ccc(S(=O)(=O)Nc3cc(-c4nc5cccnc5s4)ccc3C)cc2s1,"inconclusive: 7.94 µM [inhibitor, single point]",–
COc1ccc2cc(Br)ccc2c1CC(=O)NC(C)(C)C,"inconclusive: 5.01 µM [inhibitor, single point]",–
CCCCOP(=O)(c1ccc(N(C)C)cc1)C(Nc1ccccc1)c1ccccc1 (centres undefined),–,inactive: -8.19%
Cc1ccc(C)c(-n2c3nc(=O)[nH]c(=O)c-3cc3cc([N+](=O)[O-])ccc32)c1,–,inactive: 3.89%
O=C(c1ccc(S(=O)(=O)N2CCC(c3nc4ccccc4[nH]3)CC2)cc1)N1CCOCC1,"inconclusive: 44.7 µM [inhibitor, single point]",–
COc1cccc(CN2CCN(Cc3ccc4c(c3)OCCO4)CC2CCO)c1 (centres undefined),"inconclusive: 8.91 µM [inhibitor, single point]",–
S=c1[nH]nc(-c2ccccc2)n1/N=C/C=C/c1ccco1,–,inactive: 0.0631%
Cc1ccc(NC(=O)c2cc(-c3ccco3)nc3ccccc23)cc1S(=O)(=O)N1CCOCC1,"inconclusive: 25.1 µM [inhibitor, partial curve]",–
COC(=O)c1ccccc1NC(=O)C1CCCN(S(=O)(=O)c2ccc(F)cc2)C1 (centres undefined),"inconclusive: 39.8 µM [inhibitor, single point]",–
COC(=O)NC(c1ccco1)[C@@]1(C(=O)OC)CCCC1=O (some centres undefined),"inconclusive: 4.47 µM [inhibitor, single point]",–
COc1cccc(Cn2ncc3c4sc(B(O)O)cc4n(C)c3c2=O)c1,active: 9.47 µM,–
COc1ccc(OC)c(/C=C/C(=O)OCC(=O)Nc2cccc(C(C)=O)c2)c1,"inconclusive: 39.8 µM [inhibitor, single point]",–
N#CCSc1nc2cc(C(=O)N3CCC(C(N)=O)CC3)ccc2c2nc3ccccc3n12,"inconclusive: 31.6 µM [inhibitor, partial curve, poor fit]",–

# Reprinted from the entries so far (4 entries):
Compound,Potency,"activity change, negative = inhibition"
COc1cccc(CN2CCN(Cc3ccc4c(c3)OCCO4)CC2CCO)c1 (centres undefined),"inconclusive: 8.91 µM [inhibitor, single point]",–
S=c1[nH]nc(-c2ccccc2)n1/N=C/C=C/c1ccco1,–,inactive: 0.0631%
Cc1ccc(NC(=O)c2cc(-c3ccco3)nc3ccccc23)cc1S(=O)(=O)N1CCOCC1,"inconclusive: 25.1 µM [inhibitor, partial curve]",–
COC(=O)c1ccccc1NC(=O)C1CCCN(S(=O)(=O)c2ccc(F)cc2)C1 (centres undefined),"inconclusive: 39.8 µM [inhibitor, single point]",–
